The list shows a part of the results.
System: T1, CTL2-GFP (C. trachomatis L2/434/Bu, GFP-expressing)
T1 construct: L2/434/Bu, GFP-expressing
Design: species or system HeLa; Intracellular C. trachomatis growth in HeLa cells, bulk GFP fluorescence relative to DMSO
Settings: bulk GFP, single well; 28.5 h, 10 µM; inhibitor

Structure (SMILES) | % of control remaining
O=C(COc1ccc2c(c1)OCO2)NCc1ccccn1 [CBK269983] | 123.424%
CC(=O)Nc1ccc(-c2ccc(=O)n3c2[C@@H]2C[C@@H](CN(C(=O)C(C)(C)C)C2)C3)cc1 [CBK289199] | 106.354%
CCc1nc2ccc(C(=O)Nc3ccc4c(c3)OCC(=O)N4)cn2c1N(C)CC [CBK145521] | 110.797%
COc1ccc(CN2C(=S)N(CC3CCCCC3)[C@H]3[C@@H]2[C@H]2OC(=O)[C@@H]3C[C@H]2O)cc1 [CBK288936] | 86.0592%
Cc1ccc2oc(-c3ccc(C)c(NC(=S)NC(=O)c4ccc([N+](=O)[O-])cc4)c3)nc2c1 [CBK263897] | 139.25%
COc1cc(CNc2ccc3[nH]c(=O)[nH]c3c2)cc(Br)c1OCC(=O)NC(C)(C)C [CBK266596] | 157.456%
O=C1NC2(Nc3ccccc31)C(=O)N(Cc1cccc3ccccc13)c1ccccc12 (stereo not drawn) [CBK264954] | 48.7485%
COc1ccccc1CC(C)NC(=O)c1ccc2nc(C)[nH]c2c1 (stereo not drawn) [CBK283261] | 108.81%
Cc1cc2cc(CNc3cc(-c4ccccc4)ccc3O)c(=O)[nH]c2cc1C [CBK286164] | 130.944%
COc1ccc(N2Cc3ccccc3C2=O)cc1OC [CBK113666] | 143.016%
Oc1ccc(C2N(O)C3CCCCC3N2O)cc1 (stereo not drawn) [CBK261715] | 123.076%
O=C(NCc1ccc2occc2c1)C1(c2ccccc2)CCCC1 [CBK149525] | 71.3215%
Cc1ccccc1-c1ccc(C(=O)Nc2ccc3c(c2)OCO3)c(N2CCN(C(=O)c3ccco3)CC2)n1 [CBK076196] | 83.6042%
O=C(Nc1cccc2c1CCCC2)c1cnc2n(c1=O)CCS2 [CBK287379] | 117.487%
COc1ccccc1CN(Cc1cccnc1)C(=O)c1cnc(C)cn1 [CBK306972] | 124.626%
CC1CC1C(=O)NCCN1CCC(O)(c2cccc(F)c2)CC1 (stereo not drawn) [CBK283286] | 146.126%
COCC(=O)N1CCc2sccc2C1c1ccc(NC(=O)c2ccco2)cc1 (stereo not drawn) [CBK286200] | 109.989%
Clc1ccccc1-c1nsc(Nc2ccccc2)n1 [CBK016152] | 64.2576%
CC(C)Nc1nc2ccccc2nc1Sc1ccncc1 [CBK115250] | 128.895%
O=C(OCCC1SC(NC2CC3C=CC2C3)=NC1=O)c1c(F)cccc1F (stereo not drawn) [CBK200057T] | 134.67%
CCOC(=O)/C(C(=O)c1ccccc1)=C(/N)NCCO [CBK265621] | 119.852%
CCN1c2ccc(-c3cncn3CCCn3ccnc3C)cc2CC1C (stereo not drawn) [CBK281924] | 145.18%
CCOC(=O)C1(Cc2cc(-c3cccc(F)c3)no2)CCCNC1 (stereo not drawn) [CBK284578] | 122.34%
CN(C(=O)[C@H]1CCCC[C@H]1C(=O)O)C1CCS(=O)(=O)C1 (stereo partly drawn) [CBK286782] | 124.335%
CC1CN(C(=O)/C=C/C(=O)O)c2ccccc2NC1=O (stereo not drawn) [CBK286618] | 104.428%
O=C1CC2(C(=O)N1CCC1CCCCC1)C(=O)N(Cc1ccccc1)c1ccc(F)cc12 (stereo not drawn) [CBK075175] | 184.056%

Structure (SMILES) | % of control remaining
O=C(CC1(O)C(=O)N(Cc2ccccc2)c2ccccc21)c1cc2ccccc2oc1=O (stereo not drawn) [CBK293963] | 176.427%
Clc1ccc(COc2ccnc(N3CCCN(CC4CC4)CC3)n2)cc1Cl [CBK083963] | 146.272%
Cc1ncsc1CCOc1ccc(C(F)(F)F)cn1 [CBK115790] | 131.545%
CCC(Oc1ccccc1C)C(=O)Nc1ccccc1C(=O)N(C)C (stereo not drawn) [CBK270144] | 113.911%
Cc1ccnc2nc(C(=O)OC(C)C(=O)N3CCCC3)nn12 (stereo not drawn) [CBK306089] | 107.576%
Cn1nccc1CN1CCCC(Cc2nc3ccccc3[nH]2)C1 (stereo not drawn) [CBK281892] | 104.482%
O=C(Nc1ccc(-c2ccc(F)cc2)cc1)c1ccc(N2C(=O)CCC2=O)cc1 [CBK285683] | 109.637%
O=C(NCc1ccc(OC(F)(F)F)cc1)c1cnoc1-c1ccc(Br)cc1 [CBK154885] | 119.272%
CCCC/C=C/c1cnc(Nc2ccc(N3CCOCC3)cc2)c2nccn12 [CBK091239] | 135.897%
COc1cccc(CNc2nccnc2-c2cccs2)c1OC [CBK036784] | 219.781%
CC(C)(C)C(=O)NCCCC(=O)Nc1nc2ccc(Oc3ccccc3)cc2s1 [CBK296652] | 95.1346%
Cc1cccc([C@@H]2CN(Cc3ccccc3)C[C@]23CCCC(=O)N3)n1 [CBK283350] | 90.7457%
COc1ccc(OCCNC(=O)c2ccc(-c3ccc(C(C)=O)s3)nc2N(C)C(C)=O)cc1 [CBK076576] | 106.467%
O=C(Cc1c[nH]c2ccccc12)N1CCC2(CCCN(CCO)C2)C1 (stereo not drawn) [CBK132045] | 164.798%
O=C(Nc1cccc(F)c1)N(CCO)Cc1cccnc1 [CBK304860] | 99.5447%
CCN(CC)CCNC(=O)c1ccc(/C=N/O)nc1 [CBK288375] | 132.618%
Cc1c(Cl)cccc1NC(=O)c1cnc2sccn2c1=O [CBK246518] | 104.711%
O=C(CSc1nnc(-c2ccncc2)n1C1CCCCC1)Nc1ncc2c(n1)CC(c1ccccc1)CC2=O (stereo not drawn) [CBK266177] | 194.569%
CN1CCC[C@H]1C(=O)Nc1ccc2[nH]ccc2c1 [CBK159699] | 109.031%
O=C(OCc1ccccc1)Oc1cncc(C(=O)O)c1 [CBK262053] | 100%
COc1ccc(-c2nc3c(c(SCC(=O)O)n2)COC(C)(C)C3)cc1 [CBK286704] | 118.747%
O=C1C[C@@H]2CCN(C(=O)Nc3cccc(C(F)(F)F)c3)C[C@@H]2CCN1CCc1c[nH]cn1 [CBK288786] | 74.2504%
COc1ccc(-c2ccc(Nc3cccc(N(C)C)c3)nc2)cc1OC [CBK037606] | 103.638%
CC(C)(C)C(=O)CN1CCC2(CC1)NCCc1c2[nH]c2cc(F)ccc12 [CBK039568] | 154.911%
COc1ccc(S(=O)(=O)N2CC[C@H]3NC(=O)N(c4ccc(C(C)C)cc4)C(=O)[C@H]32)cc1 [CBK289290] | 105.483%
O=S(=O)(O)c1cc(O)c2c(/N=N/c3c(S(=O)(=O)O)cc4cc(S(=O)(=O)O)cc(O)c4c3O)cc(S(=O)(=O)O)cc2c1 [CBK260934] | 87.2393%

Grouped by structure, those above containing a CF3 group.
Structure (SMILES) | % of control remaining
Cc1ncsc1CCOc1ccc(C(F)(F)F)cn1 [CBK115790] | 131.545%
O=C(NCc1ccc(OC(F)(F)F)cc1)c1cnoc1-c1ccc(Br)cc1 [CBK154885] | 119.272%
O=C1C[C@@H]2CCN(C(=O)Nc3cccc(C(F)(F)F)c3)C[C@@H]2CCN1CCc1c[nH]cn1 [CBK288786] | 74.2504%

(cont.)

Structure (SMILES) | % of control remaining
O=C1CCC(=O)N1CCN1C(=O)C2(CC(=O)N(Cc3ccccc3)C2=O)c2ccccc21 (stereo not drawn) [CBK075705] | 176.042%
Cc1cc(C)c(OCCNC(C)(C)C)c(Cl)c1 [CBK262713C] | 119.997%
Cc1ccc(S(=O)(=O)N(C)c2ccnc(N3CCN(C)CC3)n2)cc1 [CBK000671] | 106.312%
CC(C)n1nccc1C(=O)NCC(c1ccccc1F)N1CCCC1 (stereo not drawn) [CBK283032] | 114.587%
COCCN(C(=O)c1[nH]c2c(F)cccc2c1C)C1CCN(C)CC1 [CBK307386] | 112.466%
CN1CCN(C(=O)c2cc(Br)cnc2NCCOc2ccccc2)CC1 [CBK076231] | 143.081%
CC1SC2(C(=O)Nc3ccccc32)N(c2ccc(Oc3ccccc3)cc2)C1=O (stereo not drawn) [CBK103750] | 107.873%
CCOC(=O)C1=C(C)N(CC)C(=O)NC1c1cc(OC)c(OC)c(OC)c1 (stereo not drawn) [CBK091912] | 138.065%
CC1CN(CCCCNCc2cn(C)nc2-c2cccnc2)CC(C)O1 (stereo not drawn) [CBK304453] | 96.9951%
O=C1OCCN1C1CCN(S(=O)(=O)c2cccs2)CC1 [CBK043313] | 102.552%
COCc1cc(C[C@H]2CNCC[C@H]2CC(=O)N2CCCCC2)no1 [CBK288899] | 122.485%
O=C(c1ccc2[nH]ccc2c1)N1CCc2ccccc21 [CBK200269] | 137.955%
Cc1ccc(OCC(=O)NC(Cc2ccccc2)C(=O)O)cc1 (stereo not drawn) [CBK217681] | 103.774%
Nc1c(-c2ccsc2)cnc2cccnc12 [CBK081208] | 132.801%
CC(C)c1[nH]c2ncccc2c1CN1CCSCC1 [CBK285312] | 135.415%
COc1ccccc1-c1nc(C2CCCN2C(=O)CCCC(=O)O)n2ccccc12 (stereo not drawn) [CBK046600] | 143.202%
O=c1ccc2c(-c3cccc(OCc4ccccc4)c3)ccnc2[nH]1 [CBK073739] | 89.899%
CN(C)CCN(C)c1cc(-c2cccc(Br)c2)nc2ccnn12 [CBK037140] | 111.453%
COC(=O)c1c(NC(=O)C2CC(=O)NN2C)sc2c1CCC2 (stereo not drawn) [CBK269218A] | 171.828%
COc1ccc(CCN2CCC(Oc3nccnc3OCCN3C(=O)CCC3=O)CC2)cc1OC [CBK084359] | 120.628%
CCCC/C=C/c1nccnc1NCc1ccncc1 [CBK037500] | 87.8093%
O=C(O)COc1ccc(S(=O)(=O)N2CCCc3ccccc32)cc1 [CBK269935] | 90.1518%
O=C(O)CS(=O)(=O)c1ccccc1C(=O)O [CBK261083] | 100%
FC(F)(F)c1cccnc1OCCNc1ccccc1 [CBK115822] | 112.465%
O=C(NCCCC1CCOC1)c1cnn(-c2ccc(F)cc2)c1 (stereo not drawn) [CBK283288] | 113.351%
Cc1cnc(NC(=O)N2CCOC(c3ccc(F)cc3F)C2)s1 (stereo not drawn) [CBK304126] | 103.001%

A few values from the results shown:
% of control remaining with Cc1c(Cl)cccc1NC(=O)c1cnc2sccn2c1=O [CBK246518] reads 104.711%
% of control remaining with O=C(NCc1ccc(OC(F)(F)F)cc1)c1cnoc1-c1ccc(Br)cc1 [CBK154885] reads 119.272%
% of control remaining with O=C(Cc1c[nH]c2ccccc12)N1CCC2(CCCN(CCO)C2)C1 (stereo not drawn) [CBK132045] reads 164.798%

From article PMC12040169 (PLOS Biology, 2025)
